In PubChem BioAssay AID540276 (National Center for Advancing Translational Sciences (NCATS), 2011):
Among all 300,000 compounds or so, about 5,400 (1.8%) were called active. Inconclusive results, whose numbers are uncertain, are shown with a selection of clear calls. The call rests on the fitted dose curve; tested in HEK293 cells. Where the call is inconclusive, the potency comes from a doubtful curve fit.

experiment: qHTS for inhibitors of binding or entry into cells for Marburg Virus; conditions: Marburg virus pseudotyped entry inhibition, cell reporter; series mostly up to 37.8 µM
Potency means the concentration at half of the fitted maximal effect.

| SMILES | Potency |
| --- | --- |
| Cc1ccc(C2=NN(C(=O)CSc3nc(N)cc(N)n3)C(c3ccco3)C2)cc1 (configuration not stated) | inconclusive: 35.5 µM [inhibitor, single point] |
| CCc1ccc2[nH]c(=O)c(CN(CCN(CC)CC)C(=O)NC3CCCCC3)cc2c1 | inconclusive: 25.1 µM [inhibitor, single point] |
| CC(C)CCNC(=O)C1CCN(Cc2cccc(OCc3ccccc3)c2)CC1 | inconclusive: 15.8 µM [inhibitor, partial curve, poor fit] |
| COc1ccc(CN(C)C(=O)c2ccc(COc3ccccc3)cc2)c(OC)c1 | inconclusive: 3.55 µM [inhibitor, full curve] |
| COc1ccc(-c2nnc(-c3ccc(N)cc3)o2)cc1 | inactive |
| COc1ccc(Cl)cc1NC(=O)Cn1cc2c(n1)CCC(C)C2 (configuration not stated) | inactive |
| COCc1cc(CN2CCN(Cc3ccsc3)C(CCO)C2)ccc1OC (configuration not stated) | inactive |
| O=c1c2cnn(-c3ccc(F)cc3)c2ncn1Cc1ccc(F)cc1 | inactive |
| CCN(C(=O)COC(=O)c1cnc(C)cn1)C1CCS(=O)(=O)C1 (configuration not stated) | inconclusive: 2.82 µM [activator, full curve] |
| Cn1nnc(C(O)CNCc2ccc(Cl)cc2)n1 (configuration not stated) | inconclusive: 1.41 µM [inhibitor, partial curve, poor fit] |
| CC(CN1CCCCC1)OC(=O)COc1ccc(Cl)cc1 (configuration not stated) | inconclusive: 3.55 µM [activator, single point] |
| CC1Cc2cc3c(cc2C(c2ccc(N)cc2)=NN1)OCO3 (configuration not stated) | inconclusive: 4.47 µM [inhibitor, full curve, poor fit] |
| CCOC(=O)/C(=N\Nc1cc(Cl)ccc1Cl)N1CCN(CC)CC1 | inactive |
| COc1ccc(N(Cc2cccs2)C(=O)COc2cc(C)c(Cl)c(C)c2)cc1 | inconclusive: 15.8 µM [inhibitor, single point] |
| CC(C)(C)NS(=O)(=O)c1ccc(OCC(=O)N2CCN(Cc3ccccc3)CC2)cc1 | inconclusive: 7.08 µM [inhibitor, full curve, poor fit] |
| CCOc1ccc2nc(NC(=O)c3cc(=O)c4cc(C)cc(C)c4o3)sc2c1 | inactive |
| Cc1cc(N2CCN(C(=O)c3ccco3)CC2)n2nc(-c3cccc(Cl)c3)cc2n1 | active: 16.4 µM |
| Cc1cc(S(=O)(=O)NCc2cccs2)ccc1-n1cnnn1 | inconclusive: 6.51 µM [inhibitor, single point] |
| O=C(/C=C/c1ccc2c(c1)OCO2)NCCSCc1ccc(Cl)cc1 | inconclusive: 20 µM [inhibitor, single point] |
| CCN(CC)S(=O)(=O)c1ccc2oc(C(=O)Nc3ccc(OC)cc3OC)c(C)c2c1 | inconclusive: 23.1 µM [inhibitor, single point] |
| Cc1ccc(OCC(=O)Nc2nc(-c3ccccn3)cs2)c(C)c1 | inconclusive: 5.01 µM [inhibitor, single point] |
| C=CCn1c(SCC(=O)N2CCOCC2)nc2sc(CC)cc2c1=O | inconclusive: 20 µM [inhibitor, single point] |
| COc1ccccc1NC(CC(=O)c1ccccc1)C(=O)OCC(=O)c1ccc(C)cc1 (configuration not stated) | inactive |

2 compounds picked at random from the list so far, as already listed:

| SMILES | Potency |
| --- | --- |
| COc1ccc(N(Cc2cccs2)C(=O)COc2cc(C)c(Cl)c(C)c2)cc1 | inconclusive: 15.8 µM [inhibitor, single point] |
| CC(C)(C)NS(=O)(=O)c1ccc(OCC(=O)N2CCN(Cc3ccccc3)CC2)cc1 | inconclusive: 7.08 µM [inhibitor, full curve, poor fit] |

Continuation.

| SMILES | Potency |
| --- | --- |
| O=C(CSc1nnc(NC(=O)C2CC(=O)N(c3ccc(F)cc3)C2)s1)NCc1ccco1 (configuration not stated) | inconclusive: 35.5 µM [inhibitor, single point] |
| Cc1cccc(NC(=O)c2ccc(N(C)C3CCCCC3)c([N+](=O)[O-])c2)n1 | inconclusive: 35.5 µM [inhibitor, single point] |
| O=C(NC(=O)c1ccccc1)Nc1ccc(-c2cnco2)cc1 | inconclusive: 10 µM [activator, partial curve, poor fit] |
| OC[C@H]1O[C@@H](n2cnc3c(NC4CCCC4)ncnc32)[C@H](O)[C@@H]1O | inconclusive: 0.92 µM [activator, partial curve, poor fit] |
| COc1ccc(-c2noc(-c3cccc(OC)c3OC)n2)cc1 | inconclusive: 2.24 µM [activator, full curve] |
| CC1N=C(c2ccccc2Cl)c2cc(Br)ccc2NC1=O (configuration not stated) | inconclusive: 35.5 µM [inhibitor, single point] |
| Cc1ccccc1Nc1nc(Nc2ccccc2C)nc(SC2=NCCS2)n1 | inconclusive: 29.1 µM [inhibitor, single point] |
| COc1ccc(Nc2cc(C(=O)NCc3ccccc3)c3ccccc3n2)c(OC)c1 | inconclusive: 31.6 µM [inhibitor, partial curve, poor fit] |
| CC(=O)N(C(C)=O)n1c(/C=C/c2ccc([N+](=O)[O-])cc2)nc2ccccc2c1=O | inconclusive: 20 µM [inhibitor, partial curve, poor fit] |
| O=C(CCNC(=O)c1ccccc1)Nc1ccc(S(=O)(=O)Nc2ncccn2)cc1 | inactive |
| CCOc1ccc(C(=O)NCC(=O)N2CCN(C/C=C/c3ccccc3)CC2)cc1OCC | inconclusive: 14.1 µM [inhibitor, single point] |
| COc1ccc(C(=O)NCCNC(C)=O)cc1S(=O)(=O)NCc1ccc(Cl)cc1 | inactive |
| COc1ccc(S(=O)(=O)NNC(=O)c2cc3c4ccccc4n(C)c3s2)cc1 | inconclusive: 0.517 µM [inhibitor, full curve, poor fit] |
| CCNC(=S)N/N=C1\CCCCc2ccccc21 | inactive |
| CCOC(=O)N1CCN(C(=O)c2ccccc2N(Cc2ccccc2)S(=O)(=O)c2ccccc2)CC1 | inconclusive: 7.94 µM [inhibitor, partial curve] |
| C/C(=N/NC(=O)c1cnccn1)c1cccs1 | inconclusive: 3.98 µM [activator, single point] |
| CC(C)(C)C(=O)NC(=S)NCc1ccccc1 | inconclusive: 5.62 µM [activator, single point] |
| O=C(C1CCC1)N1CCc2cc(S(=O)(=O)NCc3ccco3)ccc21 | inconclusive: 35.5 µM [inhibitor, single point] |
| CC1CN(CN2C(=O)C3=C(CCCC3)C2=O)CC(C)O1 (configuration not stated) | inconclusive: 0.259 µM [inhibitor, single point] |
| CCn1c(=O)c(C(=O)NNC(=O)c2ccc(Cl)cc2Cl)c(O)c2ccccc21 | inconclusive: 3.16 µM [activator, partial curve, poor fit] |
| CCS(=O)(=O)Nc1cccc(C2=NN(C(=O)c3ccco3)C(c3ccco3)C2)c1 (configuration not stated) | inconclusive: 3.16 µM [inhibitor, full curve] |
| O=C(Nc1cccc(S(=O)(=O)NC2=NCCC2)c1)c1ccc(F)cc1F | inactive |
| Cc1ccc2c(c1)-c1c(cnn1CC(=O)N1CCN(c3cc(Cl)ccc3C)CC1)CO2 | inactive |

| SMILES | Potency |
| --- | --- |
| Cc1ccc(C(=O)NC(c2ccccc2)C(Cl)Cl)cc1 (configuration not stated) | inconclusive: 8.91 µM [inhibitor, partial curve, poor fit] |
| Cc1ccc(N=C2CCCN2Cc2ccccc2)c(C#N)c1 | inconclusive: 6.31 µM [activator, single point] |
| CCn1c(/C=C/c2ccccc2)nc2ccccc21 | inconclusive: 0.58 µM [activator, full curve, poor fit] |
| CCc1cccc(NC(=O)CN(C)S(=O)(=O)c2cnc[nH]2)c1 | inactive |
| CN(CC(=O)Nc1ccc(F)c(Cl)c1)S(=O)(=O)c1cccc2nsnc12 | inconclusive: 29.1 µM [inhibitor, single point] |
| Cc1cccc(C)c1OC(=O)c1ccccc1 | inactive |
| COc1ccc(N2CCN(C(=O)COc3ncnc4ccccc34)CC2)cc1 | inconclusive: 5.62 µM [inhibitor, partial curve, poor fit] |
| CCOC(=O)c1c(-c2ccccc2Cl)cn2ccccc12 | inconclusive: 6.51 µM [inhibitor, single point] |
| CCC(CC)COC(=O)C(C#N)c1nc2ccccc2nc1N1CCOCC1 (configuration not stated) | inconclusive: 20.6 µM [inhibitor, single point] |
| CC(C)CC(=O)NC(=S)Nc1ccc(NC(=O)c2cccs2)cc1 | inactive |
| O=C(Nc1ccc(Cl)cc1)N(Cc1nc2ccccc2c(=O)[nH]1)Cc1cccs1 | inconclusive: 35.5 µM [inhibitor, single point] |
| COc1ccc(-n2nc(C(=O)NCC(=O)Nc3cccc(C)n3)c3ccccc3c2=O)cc1 | inconclusive: 32.6 µM [inhibitor, single point] |
| Nc1ccccc1C(=O)C=Cc1ccccc1 | inconclusive: 0.0841 µM [activator, full curve, poor fit] |
| CCN(CC)CCN1C(=O)c2ccccc2NC1c1cccc(F)c1 (configuration not stated) | inconclusive: 6.51 µM [inhibitor, single point] |
| CCN1CCC(n2nccc2NC(=O)c2ccccc2Cl)CC1 | inconclusive: 35.5 µM [inhibitor, single point] |
| CC(NC(=O)CCc1nnc(Cc2cccc(C(F)(F)F)c2)o1)C1CC1 (configuration not stated) | inconclusive: 5.62 µM [activator, single point] |
| O=C(N/N=C/c1ccc(Cl)cc1)c1n[nH]c2c1CCCC2 | inconclusive: 1.41 µM [inhibitor, full curve, poor fit] |
| CC1CCCN(C(=O)c2ccc3c(=O)n(Cc4ccc5c(c4)OCO5)c(=S)[nH]c3c2)C1 (configuration not stated) | inactive |
| CCOC(=O)C1CCN(C(=O)c2oc3ccc(S(=O)(=O)N4CC(C)CC(C)C4)cc3c2C)CC1 (configuration not stated) | inconclusive: 4.61 µM [inhibitor, partial curve, poor fit] |
| COC(=O)c1c(N)n(-c2cc(OC)cc(OC)c2)c2nc3ccccc3nc12 | inactive |
| CCn1c(/C=C/N(C)c2ccccc2)[n+](CC)c2ccc(Cl)cc21 | inconclusive: 5.17 µM [inhibitor, partial curve, poor fit] |

Quoted from the listing:
In Potency, CCOC(=O)c1c(-c2ccccc2Cl)cn2ccccc12 has the entry inconclusive: 6.51 µM [inhibitor, single point]
In Potency, CC(C)CC(=O)NC(=S)Nc1ccc(NC(=O)c2cccs2)cc1 has the entry inactive
